Laboratory results published in US20200157542.
Results from cells or extracts need not show a direct contact.

The chains behind the UniProt entries cited, without tags or fusion partners. Residues count along the entry.
UniProt P16070, 21-649: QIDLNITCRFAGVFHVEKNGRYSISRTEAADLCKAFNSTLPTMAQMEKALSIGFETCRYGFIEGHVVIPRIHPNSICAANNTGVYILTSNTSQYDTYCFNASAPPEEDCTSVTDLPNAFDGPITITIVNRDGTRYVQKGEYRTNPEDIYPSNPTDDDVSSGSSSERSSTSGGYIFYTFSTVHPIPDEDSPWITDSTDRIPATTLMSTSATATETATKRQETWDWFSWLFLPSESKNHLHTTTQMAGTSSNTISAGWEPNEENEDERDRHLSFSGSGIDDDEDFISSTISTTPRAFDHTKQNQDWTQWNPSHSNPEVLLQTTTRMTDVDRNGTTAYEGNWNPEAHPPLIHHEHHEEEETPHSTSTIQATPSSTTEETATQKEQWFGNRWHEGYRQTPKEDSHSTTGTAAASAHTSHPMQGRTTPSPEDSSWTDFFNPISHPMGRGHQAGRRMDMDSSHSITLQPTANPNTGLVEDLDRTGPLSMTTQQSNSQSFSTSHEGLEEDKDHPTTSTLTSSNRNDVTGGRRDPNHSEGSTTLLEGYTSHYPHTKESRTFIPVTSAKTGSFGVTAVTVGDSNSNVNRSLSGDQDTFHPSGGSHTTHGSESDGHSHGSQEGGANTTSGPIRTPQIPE
UniProt P16422, 24-265: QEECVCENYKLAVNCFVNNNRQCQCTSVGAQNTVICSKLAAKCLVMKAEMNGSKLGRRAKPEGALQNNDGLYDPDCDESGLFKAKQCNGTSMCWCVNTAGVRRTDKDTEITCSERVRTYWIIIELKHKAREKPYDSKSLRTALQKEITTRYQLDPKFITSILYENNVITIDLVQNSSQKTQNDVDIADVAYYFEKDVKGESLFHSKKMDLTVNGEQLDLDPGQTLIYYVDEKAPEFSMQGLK

Columns and labels:
CD44 (human) = CD44 (human) (UniProt P16070); experiment: flow cytometry; conditions: RNA (U for T in printed DNA template), 2'-F pyrimidines throughout; 1 uM aptamer, TBS, 5% BSA, tRNA, sperm DNA, 37 C; binding reduced by CD44 siRNA and nearly lost on CD44+EpCAM double knockdown; protein on the cell surface; protein details: endogenous on OVCAR8 cells; label: 3'-Cy5 on EpCAM strand for flow cytometry
EpCAM (human) = EpCAM (human) (UniProt P16422); experiment: flow cytometry; conditions: RNA (U for T in printed DNA template), 2'-F pyrimidines throughout; 1 uM aptamer, TBS, 5% BSA, tRNA, sperm DNA, 37 C; binding reduced by EpCAM siRNA and nearly lost on CD44+EpCAM double knockdown; protein on the cell surface; protein details: endogenous on OVCAR8 cells; label: 3'-Cy5 on EpCAM strand for flow cytometry

Q: Does “GGGAUGGAUCCAAGCUUACUGGCAUCUGGAUUUGCGCGUGCCAGAAUAAAGAGUAUAACGUGUGAAUGGGAAGCUUCGAUAGGAAUUCGGAAAAGCUUGUUCAGGAGAUGAAAUU / GCGACUGGUUACCCGGUCGUAAAAUUUCAUCUCCUGAACAAGCUU [CD44-EpCAM bispecific aptamer]” bind (CD44 (human))?
A: binds

Q: Does “GGGAUGGAUCCAAGCUUACUGGCAUCUGGAUUUGCGCGUGCCAGAAUAAAGAGUAUAACGUGUGAAUGGGAAGCUUCGAUAGGAAUUCGGAAAAGCUUGUUCAGGAGAUGAAAUU / GCGACUGGUUACCCGGUCGUAAAAUUUCAUCUCCUGAACAAGCUU [CD44-EpCAM bispecific aptamer]” bind (EpCAM (human))?
A: binds
